These are yes or no findings as the source states them, for the method shown. In cells and extracts the contact can be indirect. Some entries that bind do so weakly or less than the wild type.

Sequences of proteins named here, by UniProt entry; tags and fusion partners are left off.
UniProt O35099: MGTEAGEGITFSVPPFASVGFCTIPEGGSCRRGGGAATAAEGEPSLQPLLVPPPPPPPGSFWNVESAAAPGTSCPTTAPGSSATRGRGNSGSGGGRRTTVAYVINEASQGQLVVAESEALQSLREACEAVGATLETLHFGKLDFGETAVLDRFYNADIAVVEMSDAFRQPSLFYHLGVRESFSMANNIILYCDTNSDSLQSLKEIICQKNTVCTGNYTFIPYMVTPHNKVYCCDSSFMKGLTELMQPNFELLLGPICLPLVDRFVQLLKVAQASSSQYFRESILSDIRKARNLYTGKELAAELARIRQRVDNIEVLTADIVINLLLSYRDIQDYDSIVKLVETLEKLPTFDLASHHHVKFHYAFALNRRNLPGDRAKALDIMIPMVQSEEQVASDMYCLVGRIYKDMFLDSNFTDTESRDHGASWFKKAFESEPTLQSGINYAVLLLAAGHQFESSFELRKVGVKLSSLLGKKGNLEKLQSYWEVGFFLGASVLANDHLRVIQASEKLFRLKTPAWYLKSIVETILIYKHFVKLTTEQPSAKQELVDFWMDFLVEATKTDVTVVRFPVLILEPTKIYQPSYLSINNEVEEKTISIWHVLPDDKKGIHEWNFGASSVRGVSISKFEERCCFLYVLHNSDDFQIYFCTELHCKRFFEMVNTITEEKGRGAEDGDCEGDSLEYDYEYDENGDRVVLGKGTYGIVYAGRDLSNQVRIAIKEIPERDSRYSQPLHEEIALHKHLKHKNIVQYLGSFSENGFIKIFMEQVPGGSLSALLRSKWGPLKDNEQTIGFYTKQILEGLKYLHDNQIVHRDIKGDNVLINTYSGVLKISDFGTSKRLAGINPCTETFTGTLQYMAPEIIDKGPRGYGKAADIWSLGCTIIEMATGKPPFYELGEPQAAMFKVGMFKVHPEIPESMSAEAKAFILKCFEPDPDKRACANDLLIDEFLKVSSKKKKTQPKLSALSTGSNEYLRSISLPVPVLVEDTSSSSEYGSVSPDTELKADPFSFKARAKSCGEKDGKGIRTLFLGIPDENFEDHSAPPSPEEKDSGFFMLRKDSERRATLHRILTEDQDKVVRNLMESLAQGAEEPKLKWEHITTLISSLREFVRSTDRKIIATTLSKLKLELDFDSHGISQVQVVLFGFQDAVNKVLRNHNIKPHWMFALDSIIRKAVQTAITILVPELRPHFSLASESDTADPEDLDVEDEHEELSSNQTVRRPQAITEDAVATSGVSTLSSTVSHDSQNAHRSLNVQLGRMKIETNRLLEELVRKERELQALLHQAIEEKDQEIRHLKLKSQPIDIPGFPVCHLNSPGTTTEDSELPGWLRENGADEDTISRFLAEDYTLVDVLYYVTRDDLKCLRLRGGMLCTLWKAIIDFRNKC

The target in the assay is apoptosis signal-regulating kinase 1 (mouse (endogenous in mouse brain)) (UniProt O35099). The assay is described as follows: co-IP; ASK1 immunoprecipitated with rabbit polyclonal ASK1 antibody from 200-400 ug brain lysate protein (pooled from three mice) of klkl, EFmKL48 and wild-type mice; IP buffer 20 mM Tris pH 7.5, 150 mM NaCl, 2 mM EDTA, 1 mM EGTA, 4 °C; protein A agarose; co-precipitated Trx shown by Western blot. For orientation: In western blotting, separated proteins are transferred to a membrane and probed.

B1: thioredoxin (protein, UniProt P10639 1-105)
chain: MVKLIESKEAFQEALAAAGDKLVVVDFSATWCGPCKMIKPFFHSLCDKYSNVVFLEVDVDDCQDVAADCEVKCMPTFQFYKKGQKVGEFSGANKEKLEASITEYA
Consider B1, for which the binding entry is “binds”.

For the origin of these results see article PMC4599800.
